Test results taken from patent US12428442B2, “Compounds, compositions and methods for synthesis” (WAVE LIFE SCIENCES LTD., priority 2017, dated 2025).

Experiment: Use of chiral auxiliaries / phosphoramidite monomers in oligonucleotide synthesis (SOCICS or DPSE cycle), analysed by RP-HPLC/UPLC (Table 7)
[1] = dC dimer, cycle SOSICS, activator CMPT
[2] = no dimer cycle, activator or HPLC data printed
[3] = dC dimer, cycle DPSE, activator 0.5M CMIMT

OC1([C@@H]2CCCN2)CCCCC1 [WV-CA-060]
Dimer Conv. % [1]: 85.4%
Dimer HPLC Area % dC [1]: 7.8884%
Dimer HPLC Area % dCC (PO) [1]: 0.3918%
Dimer HPLC Area % dCC (Rp) [1]: 2.1565%
Dimer HPLC Area % dCC (Sp) [1]: 88.619%
Dimer Rp/Sp [1]: Sp
Dimer d.r. [1]: 97.62

CN[C@H]1CCCC[C@]1(O)C1CCCCC1 [WV-CA-061]
Dimer Conv. % [1]: 35.4%
Dimer HPLC Area % dC [1]: 45.8889%
Dimer HPLC Area % dCC (PO) [1]: 0.5981%
Dimer HPLC Area % dCC (Rp) [1]: 46.7151%
Dimer HPLC Area % dCC (Sp) [1]: 2.2635%
Dimer Rp/Sp [1]: Rp
Dimer d.r. [1]: 95.38

OC1(C[C@@H]2CCCN2)CCCC1 [WV-CA-063-S]
Dimer Conv. % [1]: 3.9%
Dimer HPLC Area % dC [1]: 92.50%
Dimer HPLC Area % dCC (PO) [1]: 0.00%
Dimer HPLC Area % dCC (Rp) [1]: 5.02%
Dimer HPLC Area % dCC (Sp) [1]: 2.48%
Dimer Rp/Sp [1]: Rp
Dimer d.r. [1]: 66.93

OC1([C@@H]2CCCCN2)CCCC1 [WV-CA-064-S]
Dimer Conv. % [1]: 11.4%
Dimer HPLC Area % dC [1]: 55.52%
Dimer HPLC Area % dCC (PO) [1]: 0.93%
Dimer HPLC Area % dCC (Rp) [1]: 12.36%
Dimer HPLC Area % dCC (Sp) [1]: 0.87%
Dimer Rp/Sp [1]: Rp
Dimer d.r. [1]: 93.44

OC1([C@@H]2CCN2)CCCC1 [WV-CA-065-S]
Dimer Conv. % [1]: 89.7%
Dimer HPLC Area % dC [1]: 5.52%
Dimer HPLC Area % dCC (PO) [1]: 2.99%
Dimer HPLC Area % dCC (Rp) [1]: 2.78%
Dimer HPLC Area % dCC (Sp) [1]: 88.72%
Dimer Rp/Sp [1]: Sp
Dimer d.r. [1]: 96.96

CN[C@H]1CCC[C@H]1C1(O)CCCC1 [WV-CA-066-R]
Dimer Conv. % [1]: 0.0%
Dimer HPLC Area % dC [1]: 100.00%
Dimer HPLC Area % dCC (PO) [1]: 0.00%
Dimer HPLC Area % dCC (Rp) [1]: 0.00%
Dimer HPLC Area % dCC (Sp) [1]: 0.00%
Dimer Rp/Sp [1]: Sp

CC[Si](CC)(CC)C[C@@H](O)[C@@H]1CCCN1 [WV-CA-067]
Dimer Rp/Sp [2]: Sp

CCC(O)(CC)[C@@H]1CCCN1 [WV-CA-068-S]
Dimer Conv. % [1]: 81.6%
Dimer HPLC Area % dC [1]: 10.08%
Dimer HPLC Area % dCC (PO) [1]: 0.57%
Dimer HPLC Area % dCC (Rp) [1]: 3.01%
Dimer HPLC Area % dCC (Sp) [1]: 84.89%
Dimer Rp/Sp [1]: Sp
Dimer d.r. [1]: 96.58

CC(C)C(O)(C(C)C)[C@@H]1CCCN1 [WV-CA-069-S]
Dimer Conv. % [1]: 19.7%
Dimer HPLC Area % dC [1]: 65.28%
Dimer HPLC Area % dCC (PO) [1]: 1.78%
Dimer HPLC Area % dCC (Rp) [1]: 7.01%
Dimer HPLC Area % dCC (Sp) [1]: 22.77%
Dimer Rp/Sp [1]: Sp
Dimer d.r. [1]: 76.46

CN[C@H]1CCCC[C@]1(C)O [WV-CA-070-S]
Dimer Conv. % [1]: 95.0%
Dimer HPLC Area % dC [1]: 2.61%
Dimer HPLC Area % dCC (PO) [1]: 1.76%
Dimer HPLC Area % dCC (Rp) [1]: 90.48%
Dimer HPLC Area % dCC (Sp) [1]: 5.16%
Dimer Rp/Sp [1]: Rp
Dimer d.r. [1]: 94.60

CN[C@H]1CCCC[C@@]1(C)O [WV-CA-070]
Dimer Rp/Sp [2]: Sp

CN[C@@H](C1CCCCC1)C1(O)CCCC1 [WV-CA-071S]
Dimer Conv. % [1]: 5.0%
Dimer HPLC Area % dC [1]: 74.21%
Dimer HPLC Area % dCC (PO) [1]: 1.93%
Dimer HPLC Area % dCC (Rp) [1]: 5.18%
Dimer HPLC Area % dCC (Sp) [1]: 0.60%
Dimer Rp/Sp [1]: Rp
Dimer d.r. [1]: 89.58

OC1([C@@H]2CCCN2)CCc2ccccc21 (some centres unmarked) [WV-CA-074-M]
Dimer Conv. % [1]: 74.6%
Dimer HPLC Area % dC [1]: 13.90%
Dimer HPLC Area % dCC (PO) [1]: 2.63%
Dimer HPLC Area % dCC (Rp) [1]: 1.90%
Dimer HPLC Area % dCC (Sp) [1]: 76.00%
Dimer Rp/Sp [1]: Sp
Dimer d.r. [1]: 97.56

O[C@]1([C@@H]2CCCN2)CCc2ccccc21 [WV-CA-074-R]
Dimer Rp/Sp [2]: Sp

O[C@@]1([C@@H]2CCCN2)CCc2ccccc21 [WV-CA-074-S]
Dimer Rp/Sp [2]: Sp

CC(C)N[C@H]1CCCC[C@]1(C)O [WV-CA-075-S]
Dimer Rp/Sp [2]: Sp

CC(C)(C)[Si](C)(C)Oc1ccccc1C[C@@H](O)[C@@H]1CCCN1 [WV-CA-076]
Dimer Rp/Sp [2]: Sp

C[C@@](O)(C1CCCC1)[C@@H]1CCCN1 [WV-CA-078]
Dimer Conv. % [1]: 83.8%
Dimer HPLC Area % dC [1]: 8.79%
Dimer HPLC Area % dCC (PO) [1]: 1.51%
Dimer HPLC Area % dCC (Rp) [1]: 1.13%
Dimer HPLC Area % dCC (Sp) [1]: 87.08%
Dimer Rp/Sp [1]: Sp
Dimer d.r. [1]: 98.72

COc1ccc(C[C@@](C)(O)[C@@H]2CCCN2)cc1 [WV-CA-079]
Dimer Conv. % [1]: 74.9%
Dimer HPLC Area % dC [1]: 14.42%
Dimer HPLC Area % dCC (PO) [1]: 1.49%
Dimer HPLC Area % dCC (Rp) [1]: 0.84%
Dimer HPLC Area % dCC (Sp) [1]: 82.71%
Dimer Rp/Sp [1]: Sp
Dimer d.r. [1]: 98.99

Cc1ccc([C@@](C)(O)[C@@H]2CCCN2)cc1 [WV-CA-080]
Dimer Conv. % [1]: 72.5%
Dimer HPLC Area % dC [1]: 15.65%
Dimer HPLC Area % dCC (PO) [1]: 1.46%
Dimer HPLC Area % dCC (Rp) [1]: 0.31%
Dimer HPLC Area % dCC (Sp) [1]: 79.53%
Dimer Rp/Sp [1]: Sp
Dimer d.r. [1]: 99.61

C[C@@](O)(c1cccc(F)c1)[C@@H]1CCCN1 [WV-CA-081]
Dimer Conv. % [1]: 66.6%
Dimer HPLC Area % dC [1]: 19.55%
Dimer HPLC Area % dCC (PO) [1]: 1.51%
Dimer HPLC Area % dCC (Rp) [1]: 0.31%
Dimer HPLC Area % dCC (Sp) [1]: 74.97%
Dimer Rp/Sp [1]: Sp
Dimer d.r. [1]: 99.59

C[C@@](O)(c1cc(F)cc(F)c1)[C@@H]1CCCN1 [WV-CA-082]
Dimer Conv. % [1]: 60.8%
Dimer HPLC Area % dC [1]: 23.24%
Dimer HPLC Area % dCC (PO) [1]: 1.44%
Dimer HPLC Area % dCC (Rp) [1]: 0.72%
Dimer HPLC Area % dCC (Sp) [1]: 68.93%
Dimer Rp/Sp [1]: Sp
Dimer d.r. [1]: 98.96

COc1ccc([C@@](C)(O)[C@@H]2CCCN2)c(OC)c1 [WV-CA-083]
Dimer Conv. % [1]: 44.1%
Dimer HPLC Area % dC [1]: 32.23%
Dimer HPLC Area % dCC (PO) [1]: 1.63%
Dimer HPLC Area % dCC (Rp) [1]: 0.00%
Dimer HPLC Area % dCC (Sp) [1]: 48.58%
Dimer Rp/Sp [1]: Sp
Dimer d.r. [1]: 100.00

CC(C)(O)[C@@H]1CCCN1 [WV-CA-090]
Dimer Conv. % [1]: 86.1%
Dimer HPLC Area % dC [1]: 7.45%
Dimer HPLC Area % dCC (PO) [1]: 1.68%
Dimer HPLC Area % dCC (Rp) [1]: 3.06%
Dimer HPLC Area % dCC (Sp) [1]: 86.04%
Dimer Rp/Sp [1]: Sp
Dimer d.r. [1]: 96.57

OC(c1ccccc1)(c1ccccc1)[C@@H]1CCCN1 [WV-CA-091]
Dimer Conv. % [1]: 27.4%
Dimer HPLC Area % dC [1]: 56.40%
Dimer HPLC Area % dCC (PO) [1]: 1.39%
Dimer HPLC Area % dCC (Rp) [1]: 1.21%
Dimer HPLC Area % dCC (Sp) [1]: 39.44%
Dimer Rp/Sp [1]: Sp
Dimer d.r. [1]: 97.02

CC(C)N[C@@H](C(C)C)C1(O)CCCC1 [WV-CA-092]
Dimer Conv. % [1]: 4.8%
Dimer HPLC Area % dC [1]: 87.07%
Dimer HPLC Area % dCC (PO) [1]: 0.00%
Dimer HPLC Area % dCC (Rp) [1]: 8.70%
Dimer HPLC Area % dCC (Sp) [1]: 0.00%
Dimer Rp/Sp [1]: Rp
Dimer d.r. [1]: 100.00

C[C@@](O)(c1ccccc1)[C@@H]1C[C@@H]2CCCC[C@@H]2N1 [WV-CA-097]
Dimer Conv. % [1]: 18.1%
Dimer HPLC Area % dC [1]: 66.15%
Dimer HPLC Area % dCC (PO) [1]: 1.01%
Dimer HPLC Area % dCC (Rp) [1]: 9.33%
Dimer HPLC Area % dCC (Sp) [1]: 18.53%
Dimer Rp/Sp [1]: Sp
Dimer d.r. [1]: 66.51

OC1([C@@H]2C[C@@H]3CCCC[C@@H]3N2)CCCC1 [WV-CA-098]
Dimer Conv. % [1]: 39.8%
Dimer HPLC Area % dC [1]: 42.54%
Dimer HPLC Area % dCC (PO) [1]: 1.86%
Dimer HPLC Area % dCC (Rp) [1]: 4.48%
Dimer HPLC Area % dCC (Sp) [1]: 49.12%
Dimer Rp/Sp [1]: Sp
Dimer d.r. [1]: 91.64

C[C@](O)(c1ccccc1)[C@H]1CCCN1 [WV-CA-100-D]
Dimer Rp/Sp [2]: Sp

C[C@@](O)(c1ccccc1)[C@@H]1CCCN1 [WV-CA-100-L]
Dimer Rp/Sp [1]: Sp

CC(C)(C)c1ccc2c(c1)C([C@@H](O)[C@@H]1CCCN1)c1cc(C(C)(C)C)ccc1-2 [WV-CA-110]
Dimer Conv. % [3]: 97.8% and 93.2%
Dimer HPLC Area % dC [3]: 0.84% and 2.69%
Dimer HPLC Area % dCC (Rp) [3]: 1.89% and 2.19%
Dimer HPLC Area % dCC (Sp) [3]: 97.27% and 95.13%
Dimer Rp/Sp [3]: Sp
Dimer d.r. [3]: 98.09 and 97.75

Values joined by “and” are separate entries in the source; they are usually repeats but may differ in a detail not shown here. Equal values may be shown once.
